Measured values: the supplement of paper PMC7877785
± gives the uncertainty stated by the source. Many entries were measured with a wide error.

Assay: self-splicing fitness, log relative to wild type (ln ratio); higher = more splicing; Tetrahymena group I intron in knt gene, E. coli kanamycin selection, DiMSum; sequences stand for … in CUCUCU…GGAGGGAAAAGUUAUCAGGCAUGCACCUGGUAGCUAGUCUUUAAACCAAUAGAUUGCAUCGGUUUAAAAGGCAAGACCGUCAAAUUGCGGGAAAGGGGUCAACAGCCGUUCAGUACCAAGUCUCAGGGGAAACUUUGAGAUGGCCUUGCAAAGGGUAUGGUAAUAAGCUGACGGACAUGGUCCUAACCACGCAGCCAAGUCCUAAGUCAACAGAUCUUCUGUUGAUAUGGAUGCAGUUCACAGACUAAAUGUCGGUCGGGGAAGAUGUAUUCUUCUCAUAAGAUAUAGUCGGACCUCUCCUUAAUGGGAGCUAGCGGAUGAAGUGAUGCAACACUGGAGCCGCUGGGAACUAAUUUGUAUGCGAAAGUAUAUUGAUUAGUUUUGGAGUACUCGUGGUCG
Summary of the method: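 Pooled colonies went to amplicon sequencing on an Illumina HiSeq 2500 after six replicate transformations. The plates were LB agar with 100 μg/mL carbenicillin, 50 μM IPTG and 0.2% rhamnose, with or without 25 μg/mL kanamycin, incubated overnight at 37°C or 30°C. The E. coli BL21(DE3) library had all eight P1ex-region intron nucleotides randomised, the intron placed in the knt kanamycin-resistance gene on pET-22b(+). DiMSum fitness is the error-weighted combination of replicate fold changes, kanamycin against none, normalised to wild type.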

## CUCCAGCAAUAUUACGAGGU
30 °C
  self-splicing fitness (ln): -4.41 ± 0.31
37 °C
  self-splicing fitness (ln): -3.07 ± 0.24

## UUAUAGCAAUAUUACGCCCC
30 °C
  self-splicing fitness (ln): -1.52 ± 0.87

## CAGAAGCAAUAUUACGCCUC
30 °C
  self-splicing fitness (ln): -2.65 ± 0.65

## GCGGAGCAAUAUUACGUUUC
37 °C
  self-splicing fitness (ln): -2.88 ± 0.54

## CUUGAGCAAUAUUACGUAUU
30 °C
  self-splicing fitness (ln): -4.21 ± 0.73

## CCUGAGCAAUAUUACGAACC
37 °C
  self-splicing fitness (ln): -2.87 ± 0.74

## UCGAAGCAAUAUUACGAAAU
30 °C
  self-splicing fitness (ln): -4.3 ± 0.52

## UCAGAGCAAUAUUACGAUUA
37 °C
  self-splicing fitness (ln): -2.68 ± 0.64

## UCUGAGCAAUAUUACGUUGC
37 °C
  self-splicing fitness (ln): -2.89 ± 0.75

## GAUCAGCAAUAUUACGCCCC
37 °C
  self-splicing fitness (ln): -0.687 ± 0.87

## CUGUAGCAAUAUUACGAAAA
37 °C
  self-splicing fitness (ln): -2.64 ± 1.1

## UGCAAGCAAUAUUACGAAGC
30 °C
  self-splicing fitness (ln): -4.66 ± 1

## CAAUAGCAAUAUUACGGAUC
37 °C
  self-splicing fitness (ln): -2.92 ± 0.54

## GGUUAGCAAUAUUACGGAGA
30 °C
  self-splicing fitness (ln): -2.51 ± 0.8

## CAACAGCAAUAUUACGGCUA
30 °C
  self-splicing fitness (ln): -1.28 ± 0.073
37 °C
  self-splicing fitness (ln): -0.553 ± 0.073

## GUGGAGCAAUAUUACGGUGC
30 °C
  self-splicing fitness (ln): -2.76 ± 0.24
37 °C
  self-splicing fitness (ln): -1.93 ± 0.25

## UCGUAGCAAUAUUACGGCAC
30 °C
  self-splicing fitness (ln): -1.93 ± 1.2
37 °C
  self-splicing fitness (ln): -1.2 ± 0.73

## CGGGAGCAAUAUUACGCUAC
30 °C
  self-splicing fitness (ln): -2.87 ± 1.1
37 °C
  self-splicing fitness (ln): -1.77 ± 0.69

## AUAAAGCAAUAUUACGAAUA
30 °C
  self-splicing fitness (ln): -0.578 ± 0.14
37 °C
  self-splicing fitness (ln): -0.302 ± 0.26

## CGUUAGCAAUAUUACGGCUA
37 °C
  self-splicing fitness (ln): -2.77 ± 0.53

## AUUUAGCAAUAUUACGCCCA
30 °C
  self-splicing fitness (ln): -1.06 ± 0.26
37 °C
  self-splicing fitness (ln): -1.58 ± 0.27

## CGUUAGCAAUAUUACGCUGC
30 °C
  self-splicing fitness (ln): -2.26 ± 0.54

## GUGGAGCAAUAUUACGGAAG
30 °C
  self-splicing fitness (ln): -4.51 ± 0.59
37 °C
  self-splicing fitness (ln): -4.63 ± 0.51

## AUAGAGCAAUAUUACGGUCC
37 °C
  self-splicing fitness (ln): -4.36 ± 0.59

## CUCAAGCAAUAUUACGGCCA
30 °C
  self-splicing fitness (ln): -3.7 ± 1
37 °C
  self-splicing fitness (ln): -2.96 ± 0.62

## ACAGAGCAAUAUUACGCACA
30 °C
  self-splicing fitness (ln): -4.02 ± 0.61

## UUAUAGCAAUAUUACGCCCG
37 °C
  self-splicing fitness (ln): -0.424 ± 0.56

## UUGUAGCAAUAUUACGAGGC
30 °C
  self-splicing fitness (ln): -3.07 ± 0.27
37 °C
  self-splicing fitness (ln): -1.77 ± 0.31

## AGAGAGCAAUAUUACGCACA
37 °C
  self-splicing fitness (ln): -1.25 ± 0.63

## UCUUAGCAAUAUUACGGUCU
30 °C
  self-splicing fitness (ln): -4.42 ± 0.42
37 °C
  self-splicing fitness (ln): -2.67 ± 0.32

## GGAUAGCAAUAUUACGUGUC
37 °C
  self-splicing fitness (ln): -3.26 ± 0.52

## AGCCAGCAAUAUUACGCAGC
30 °C
  self-splicing fitness (ln): -3.83 ± 0.52

## GGUUAGCAAUAUUACGCGCU
30 °C
  self-splicing fitness (ln): -2.36 ± 0.5
37 °C
  self-splicing fitness (ln): -0.947 ± 0.71

## GGCAAGCAAUAUUACGGCAC
30 °C
  self-splicing fitness (ln): -0.671 ± 0.071
37 °C
  self-splicing fitness (ln): 0.369 ± 0.12

## UACGAGCAAUAUUACGGUCC
37 °C
  self-splicing fitness (ln): -1.95 ± 0.51

## CUGGAGCAAUAUUACGUUCC
30 °C
  self-splicing fitness (ln): -3.21 ± 0.62
37 °C
  self-splicing fitness (ln): -0.171 ± 0.73

## UCGGAGCAAUAUUACGAAGA
30 °C
  self-splicing fitness (ln): -3.23 ± 0.61

## UUUGAGCAAUAUUACGGCCC
37 °C
  self-splicing fitness (ln): 1.8 ± 0.53

## AUUUAGCAAUAUUACGCUGC
30 °C
  self-splicing fitness (ln): -2.29 ± 0.72
37 °C
  self-splicing fitness (ln): -0.397 ± 0.54

## UUUUAGCAAUAUUACGUUCC
30 °C
  self-splicing fitness (ln): -0.317 ± 0.73
37 °C
  self-splicing fitness (ln): -0.84 ± 0.59

## CUGCAGCAAUAUUACGCGUC
30 °C
  self-splicing fitness (ln): -3.98 ± 0.35
37 °C
  self-splicing fitness (ln): -2.05 ± 0.32

## CAGAAGCAAUAUUACGCCAC
30 °C
  self-splicing fitness (ln): -2.77 ± 1.1

## CAUUAGCAAUAUUACGAGUC
30 °C
  self-splicing fitness (ln): -5.39 ± 1

## UCAAAGCAAUAUUACGUUCC
37 °C
  self-splicing fitness (ln): -4.15 ± 1

## GGUGAGCAAUAUUACGCCUG
30 °C
  self-splicing fitness (ln): -5.46 ± 1

## CCAUAGCAAUAUUACGAGAA
37 °C
  self-splicing fitness (ln): -1.79 ± 0.51

## UAAUAGCAAUAUUACGAAUU
30 °C
  self-splicing fitness (ln): -3.96 ± 0.59

## ACGGAGCAAUAUUACGAGCC
30 °C
  self-splicing fitness (ln): -4.51 ± 1

## AUUGAGCAAUAUUACGAAAA
37 °C
  self-splicing fitness (ln): -1.62 ± 0.79

## ACUGAGCAAUAUUACGGGAC
30 °C
  self-splicing fitness (ln): -2.98 ± 0.65
37 °C
  self-splicing fitness (ln): -1.43 ± 0.28

## UCGAAGCAAUAUUACGUGGC
30 °C
  self-splicing fitness (ln): -6.08 ± 1

## AUCGAGCAAUAUUACGGACC
37 °C
  self-splicing fitness (ln): -1.29 ± 1.2

## GAUGAGCAAUAUUACGGGGA
30 °C
  self-splicing fitness (ln): -4.22 ± 0.51

## CAUGAGCAAUAUUACGCAGA
30 °C
  self-splicing fitness (ln): -4.53 ± 0.32
37 °C
  self-splicing fitness (ln): -1.69 ± 0.15

## CAAUAGCAAUAUUACGUGCC
30 °C
  self-splicing fitness (ln): -2.98 ± 0.26
37 °C
  self-splicing fitness (ln): -3.02 ± 0.32

## GGGGAGCAAUAUUACGCCUA
30 °C
  self-splicing fitness (ln): -0.849 ± 0.53
37 °C
  self-splicing fitness (ln): 0.118 ± 0.61

## CGAGAGCAAUAUUACGGGCC
30 °C
  self-splicing fitness (ln): -2.09 ± 1.4
37 °C
  self-splicing fitness (ln): -2.13 ± 0.56

## CGGGAGCAAUAUUACGCCCC
37 °C
  self-splicing fitness (ln): -0.693 ± 1.4

## UACGAGCAAUAUUACGUCGU
37 °C
  self-splicing fitness (ln): -3.49 ± 1

## GUGCAGCAAUAUUACGAUCC
30 °C
  self-splicing fitness (ln): -1.27 ± 1.4
37 °C
  self-splicing fitness (ln): -1.1 ± 0.92

## UCCGAGCAAUAUUACGCACC
30 °C
  self-splicing fitness (ln): -2.09 ± 1
37 °C
  self-splicing fitness (ln): -0.234 ± 1.4
